Drawing on publication PMC5009372, this text covers binding for 2 molecules.

The target in assay [1] is T1, YL1 (YELLOW LEAF 1), full-length, in pGBKT7 (rice (Oryza sativa)) (UniProt Q0E3V2).
T1 sequence: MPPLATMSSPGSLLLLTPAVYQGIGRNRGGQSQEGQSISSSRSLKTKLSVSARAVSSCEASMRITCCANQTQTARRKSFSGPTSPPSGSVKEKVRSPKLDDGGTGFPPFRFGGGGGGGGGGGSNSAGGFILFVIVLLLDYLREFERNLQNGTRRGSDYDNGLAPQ
The assay can be described thus: two-hybrid; Matchmaker Gold system (Clontech); YL1 in pGBKT7 (bait), subunits in pGADT7 (prey); S. cerevisiae AH109; growth on SD/-Ade/-His/-Leu/-Trp medium containing X-α-gal.

Assay [2] has as its target T2, YL1-C (CDS 286-495), in pSCYNE (BiFC) (rice (Oryza sativa)) (UniProt Q0E3V2).
T2 sequence: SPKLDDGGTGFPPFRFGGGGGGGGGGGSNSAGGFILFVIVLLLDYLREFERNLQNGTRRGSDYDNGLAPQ
Briefly: split reporter; BiFC with split CFP; YL1 constructs in pSCYNE, AtpB in pSCYCE(R); cotransformed into rice protoplasts; confocal microscopy.

Assay [3] has as its target T3, YL1, full-length, in pSCYNE (BiFC) (rice (Oryza sativa)) (UniProt Q0E3V2).
T3 sequence: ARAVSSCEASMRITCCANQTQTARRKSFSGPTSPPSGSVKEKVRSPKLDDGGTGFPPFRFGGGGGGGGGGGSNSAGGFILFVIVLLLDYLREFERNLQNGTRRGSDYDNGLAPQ
Described as above.

These are yes or no findings as the source states them, for the method shown. For part of these data: Binding seen in cells or lysates may run through a third protein. Some binding calls cover weakened binding; strength is not graded here.

B1: AtpB (β subunit of chloroplast ATP synthase), in pGADT7 (protein, UniProt P12085 1-498)
chain: MRTNPTTSRPGVSTIEEKSTGRIDQIIGPVLDVTFPPGKLPYIYNALVVKSRDTDGKQINVTCEVQQLLGNNRVRAVAMSATDGLMRGMEVIDTGAPLSVPVGGATLGRIFNVLGEPVDNLGPVDTSATFPIHRSAPAFIELDTKLSIFETGIKVVDLLAPYRRGGKIGLFGGAGVGKTVLIMELINNIAKAHGGVSVFGGVGERTREGNDLYMEMKESGVINEKNLEESKVALVYGQMNEPPGARMRVGLTALTMAEYFRDVNKQDVLLFIDNIFRFVQAGSEVSALLGRMPSAVGYQPTLSTEMGSLQERITSTKKGSITSIQAVYVPADDLTDPAPATTFAHLDATTVLSRGLASKGIYPAVDPLDSTSTMLQPRIVGNEHYETAQRVKQTLQRYKELQDIIAILGLDELSEEDRLTVARARKIERFLSQPFFVAEVFTGSPGKYVGLAETIRGFQLILSGELDGLPEQAFYLVGNIDEASTKAINLEEENKLKK
For the molecule B1, in assay [1], the binding entry is listed as “binds”.

B2: AtpB, in pSCYCE(R) (BiFC) (protein, UniProt P12085 1-498)
chain: B1 chain
As to B2, the binding entry is on record as “no binding” in assay [2] and “binds” in assay [3].
